Laboratory results reported in patent publication US10085940B2, “Liposomes co-encapsulating a bisphosphonate and an amphipathic agent” (YISSUM RESEARCH DEVELOPMENT COMPANY OF THE HEBREW …, priority 2011, dated 2018).

Columns and labels:
[1] = system: N87 human gastric carcinoma cells; experiment: In vitro cytotoxicity, 72 hr continuous exposure, methylene blue staining; type: cell-based; settings: N-87
Procedure: (§1) The cytotoxicity of L-ALD/DOX relative to DOXIL and other control samples (free DOX, free ALD and L-ALD) was determined in three human cell lines, KB human cervical carcinoma, N87 human gastric carcinoma cells and IGROV-1 ovarian carcinoma.
(§2) Cytotoxicity was assayed using varying concentrations of ALD (0.1-200 μM) under standard 72 hr, continuous exposure, in 96-multiwell assays. Growth rate was assessed colorimetrically based on methylene blue staining and data was obtained with an automatic plate reader and IC50 values were determined

[2] = system: IGROV-1 ovarian carcinoma; experiment: as above; type: cell-based; settings: Homo sapiens
Procedure: as §1, §2
Other controls included Free ALD and DOX.
Cytotoxicity was assayed as described above in Example 1.

NCCCC(O)(P(=O)(O)O)P(=O)(O)O [Free ALD, 4-amino-1-hydroxybutylidene-1,1-bisphosphonic acid]
IC50 [1]: > 100 µM
IC50 [2]: > 20 µM
